# Results as given in PubChem BioAssay AID1347076 (National Center for Advancing Translational Sciences (NCATS), 2019).
# Screen size: about 400,000 compounds; about 13,000 (3.2%) were called active. The inconclusive results got no clear call from the source; some entries with a clear call stand among them for comparison. Calls follow the shape of the dose curve; as a rule, active = well fitted cell-killing curve with a large enough effect; inconclusive = small, poorly fitted or top-dose-only effect, or effect the other way; inactive = flat fitted curve, though single readings scatter. Potencies beside an inconclusive call are fits to weak or partial responses and may not hold up.
# Assay: qHTS assay for MDR1-selective chemotherapeutics: Primary screen using the drug-selected MDR subline cells KB-V1; also: nearly all actives have a fitted effect of over 60% in size
# Settings: KB-V1 MDR cells viability, CellTiter-Glo, 72 h; series mostly up to 46.1 µM
# How it was run: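 Cytotoxicity via CellTiter-Glo luminescence after 72 h compound exposure at 37 degrees C. Cells: drug-selected KB-V1 line, DMEM phenol-red free plus 10% FBS. Compounds tested at multiple concentrations; normalized data fitted to concentration-effect curves.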
# Potency is read from the fitted curve at half-maximal effect.
row,SMILES,Potency
1,COc1cccc(NC(=O)Nc2nc(SC(C)(C)C)ns2)c1,"inconclusive: 29.1 µM [cytotoxic, single point]"
2,Clc1cccc(Cl)c1CO/N=C/c1c(-c2ccccc2)nc2n1CCS2,active: 12.6 µM
3,c1csc(CNc2ncnc3nc[nH]c23)c1,"inconclusive: 3.66 µM [cytotoxic, partial curve]"
4,CC(C)c1cc(Br)ccc1OCCCN1C(=O)NC(C)(C)C1=O,active: 13 µM
5,CN(CC(=O)Nc1ccc2c(c1)OCCO2)S(=O)(=O)c1cccc2cccnc12,inactive
6,Cc1ccnc(NC(=S)N2CCN(c3cccc(C(F)(F)F)c3)CC2)c1,"inconclusive: 29.1 µM [cytotoxic, single point]"
7,Cc1ccc(-n2ncc3c(=O)n(CC(=O)NCc4ccco4)cnc32)cc1C,"inconclusive: 29.1 µM [cytotoxic, single point]"
8,CCn1c(CC(=O)Nc2cccc(Cl)c2Cl)nnc1SCCOc1ccc(OC)cc1,active: 20.6 µM
9,C=CCn1c(COc2ccccc2F)nnc1SCC(=O)c1c[nH]c2ccccc12,active: 13 µM
10,COc1ccc(CCNC(=S)NC(=O)c2ccc(Br)cc2)cc1OC,"inconclusive: 20.6 µM [cytotoxic, single point]"
11,O=C(CCc1ccc(S(=O)(=O)NC2CCCCC2)cc1)N(Cc1ccccc1)Cc1ccccc1,"inconclusive: 20.6 µM [cytotoxic, single point]"
12,Cc1ccc(S(=O)(=O)N2CCOCC2)cc1C(=O)OC1CCCCC1=O (stereo not given),"inconclusive: 16.4 µM [rising, single point]"
13,C=C(C)c1cccc(C(C)(C)NC(=O)Nc2nnc(C(C)C)s2)c1,"inconclusive: 23.1 µM [cytotoxic, partial curve, poor fit]"
14,O=C(N/N=C/c1ccc2c(c1)OCO2)c1ccc(NC(=O)c2ccccc2Cl)cc1,inactive
15,COc1ccc(/C(=N\Nc2ccccc2C(=O)O)c2ccccc2)cc1,"inconclusive: 25.9 µM [rising, single point]"
16,CCC(C)c1ccccc1NC(=O)c1cc2cccc([N+](=O)[O-])c2[nH]1 (stereo not given),inactive
17,COc1ccc(N2CCN(S(=O)(=O)CCNC(=O)C3CCCCC3)CC2)cc1,"inconclusive: 25.9 µM [cytotoxic, single point]"
18,Cc1ccc(-c2csc3nc[nH]c(=S)c23)cc1C,active: 13 µM
19,CC(C)c1ccc(CNc2ccc3c(c2)ncn3C)cc1,"inconclusive: 29.1 µM [cytotoxic, single point]"
20,Cc1cc(C)n(-c2ccc(C(=O)Nc3ccc(C)c(S(=O)(=O)N4CCOCC4)c3)cc2)n1,"inconclusive: 6.51 µM [cytotoxic, full curve, poor fit]"
21,CCCCC[C@H](O)/C=C/[C@H]1CCC(=O)[C@@H]1CCCCCCC(=O)N1CCCCC1CO (stereo not given in full),inactive
22,O=C(Cc1ccc(Cl)cc1)NCCCNC(=O)c1cccnc1,inactive
23,CCC(CC)c1nn2c(=O)cc(COc3ccc(NC(=O)c4ccccc4C)cc3)nc2s1,inactive
24,Cc1ccc(S(=O)(=O)NCC(=O)NCC(=O)N(C)Cc2ccc(Br)s2)cc1C,"inconclusive: 13 µM [cytotoxic, partial curve]"
25,CC1(C)Cc2c(C#N)c(OCC(=O)c3ccc(Cl)cc3)nc(-c3ccoc3)c2CO1,"inconclusive: 4.11 µM [cytotoxic, partial curve, poor fit]"

row,SMILES,Potency
1,NS(=O)(=O)c1ccc(SCc2ccccc2)nc1,inactive
2,CCC(C)NC(=O)CSc1nnc(-c2ccc(C(C)(C)C)cc2)n1C (stereo not given),inactive
3,Clc1ccc(CN2CCN(/N=C/c3ccco3)CC2)cc1,"inconclusive: 29.1 µM [cytotoxic, single point]"
4,CCn1cc(C(c2ccccc2)C(C(C)=O)[N+](=O)[O-])c2ccccc21 (stereo not given),"inconclusive: 3.66 µM [cytotoxic, partial curve, poor fit]"
5,COc1ccc(OCc2cc(C(=O)N3CCC(c4ccccc4)CC3)no2)c(Cl)c1,"inconclusive: 29.1 µM [cytotoxic, single point]"
6,CCOc1ccccc1CNc1ccc(N2CCOCC2)c(C(=O)O)c1,"inconclusive: 20.6 µM [cytotoxic, single point]"
7,COc1ccc(C)cc1NC(=O)CSc1nnc(COc2ccc(Cl)cc2)n1Cc1ccco1,"inconclusive: 29.1 µM [cytotoxic, single point]"
8,O=C(NCCc1ccccc1)c1ccc(NC(=O)C2CCC2)cc1,inactive
9,COc1ccccc1N1CCN(C(=O)Nc2ccc(F)c(Cl)c2)CC1,"inconclusive: 20.6 µM [cytotoxic, single point]"
10,Cc1ccc(/C=C(\C#N)C(=O)NC(C)c2ccccc2)o1 (stereo not given),inactive
11,Cc1[nH]c2ccccc2c1CC#N,inactive
12,Cn1ccc2c(N(Cc3ccccc3)Cc3ccccc3)cc3c(c21)C1CCC3O1 (stereo not given),inactive
13,CCn1c(=O)c(=O)[nH]c2cc(C(=O)NCc3ccc(F)cc3)ccc21,inactive
14,O=C(Cc1cccs1)N(CC1CCCO1)C1(C(=O)NC2CCCCC2)CCCCC1 (stereo not given),"inconclusive: 5.17 µM [cytotoxic, partial curve]"
15,C=CC12C=CC=CN1C(C(=O)OC)=C(C(=O)OC)C(C(=O)OC)=C2C(=O)OC (stereo not given),active: 18.4 µM
16,COC(=O)c1cc(=O)n(CCc2ccccc2)c(=Nc2ccc(F)cc2)s1,inactive
17,O=C(C1CCN(S(=O)(=O)c2ccccc2F)CC1)N1CCc2ccccc2C1,"inconclusive: 23.1 µM [cytotoxic, single point]"
18,CCOC(=O)CCCNC(=O)COC(=O)c1ccc(O)cc1,inactive
19,COc1ccc(Cl)cc1NC(=S)N(Cc1cccnc1)Cc1ccco1,"inconclusive: 6.51 µM [cytotoxic, partial curve]"
20,Cc1ccc(-c2nc(CCNC(=O)c3ccco3)cs2)cc1,"inconclusive: 20.6 µM [cytotoxic, single point]"
21,Cc1ccc(SCc2cn3ccccc3n2)cc1,"inconclusive: 18.4 µM [cytotoxic, single point]"
22,Clc1ccc2nc(COc3ccccc3)[nH]c2c1,inactive
23,Cc1c(Cl)cccc1NC(=O)Cn1c(=O)n(Cc2ccco2)c(=O)c2sc3ccccc3c21,inactive
24,CN1C(=O)N(C)C2C1N(CN1CCCCC1)C(=O)N2CN1CCCCC1 (stereo not given),"inconclusive: 23.1 µM [cytotoxic, single point]"
25,Cc1ccc(C2=NOC(C)(c3nnc(-c4ccccc4)o3)C2)cc1 (stereo not given),"inconclusive: 32.6 µM [rising, single point]"

# Reprinted at random: three records from the list, in no set order.
row,SMILES,Potency
23,Cc1c(Cl)cccc1NC(=O)Cn1c(=O)n(Cc2ccco2)c(=O)c2sc3ccccc3c21,inactive
7,COc1ccc(C)cc1NC(=O)CSc1nnc(COc2ccc(Cl)cc2)n1Cc1ccco1,"inconclusive: 29.1 µM [cytotoxic, single point]"
5,COc1ccc(OCc2cc(C(=O)N3CCC(c4ccccc4)CC3)no2)c(Cl)c1,"inconclusive: 29.1 µM [cytotoxic, single point]"

# (more compounds)

row,SMILES,Potency
1,CC1CCCCC1NC(=S)Nc1ccc(SC(F)F)cc1 (stereo not given),"inconclusive: 16.4 µM [cytotoxic, single point]"
2,Cc1c(C(=O)NCc2ccc(Cl)cc2)sc2nc3n(c(=O)c12)CCCCC3,"inconclusive: 2.31 µM [cytotoxic, partial curve, poor fit]"
3,COc1ccc(S(=O)Cc2ccc(C(=O)N3CCN(c4cccc(C)c4C)CC3)o2)cc1 (stereo not given),"inconclusive: 1.84 µM [cytotoxic, partial curve, poor fit]"
4,CCSc1nnc(-c2ccc(S(=O)(=O)NCc3cccs3)cc2)o1,active: 20.6 µM
5,COc1ccc(C(C(=O)NC2CCCC2)N(CCCO)C(=O)c2snc(C(N)=O)c2N)cc1 (stereo not given),inactive
6,CCc1cc(C(=O)N(C)CC(=O)Nc2c(Cl)cccc2Cl)sc1C,active: 18.4 µM
7,Cn1c(SCC(=O)N2CCCCC2)nc2c([nH]c3ccccc32)c1=O,inactive
8,COc1ccc(CSCC(=O)Nc2ccccc2SC)cc1,active: 18.4 µM
9,CCOc1ccc(NC(=O)Cn2c(=O)n(-c3cccc(Cl)c3)c(=O)c3c2c2cc(C)ccc2n3C)cc1,"inconclusive: 32.6 µM [cytotoxic, partial curve, poor fit]"
10,Cc1ccc(Sc2c(CO)c(-c3ccccc3)nn2C)cc1,"inconclusive: 11.6 µM [cytotoxic, partial curve, poor fit]"
11,COc1cc(NC(=O)C2CCN(S(=O)(=O)c3cccc4nonc34)CC2)cc(OC)c1,"inconclusive: 18.4 µM [cytotoxic, partial curve, poor fit]"
12,COc1ccc(S(=O)(=O)Nc2cccc(-c3ccc(N4CCC(C)CC4)nn3)c2)c(OC)c1,inactive
13,Cc1cc(N)n(-c2ccc(Cl)cc2)n1,inactive
14,COc1c(C)cc(Br)cc1C(=O)Nc1ccc(-c2nc3ncccc3o2)cc1,inactive
15,Clc1ccc2oc3c(Cl)ncnc3c2c1,inactive
16,COc1ccccc1N(CC(=O)N1CCCC1)S(=O)(=O)c1cc([N+](=O)[O-])ccc1Cl,"inconclusive: 5.8 µM [cytotoxic, partial curve]"
17,O=c1[nH]c(=O)n(-c2ccccc2)c2c1C(C(F)(F)F)(C(F)(F)F)N=C(CCC1CCCCC1)N2,active: 5.17 µM
18,COc1ccc(CN2C[C@@H](CO)O[C@@H](n3cnc4c(NCCO)ncnc43)C2)cc1,inactive
19,CCC(CO)Oc1cc(NCc2ccccc2C(F)(F)F)c2ncn(C(C)C)c2c1 (stereo not given),"inconclusive: 25.9 µM [cytotoxic, single point]"
20,Cc1ccc(N2C(=O)CSC23C(=O)N(Cc2ccccc2F)c2ccccc23)cc1F (stereo not given),active: 10.3 µM
21,CCOC(=O)c1c(NC(=O)c2nc(SCC)ncc2Cl)sc2c1CCCC2,inactive
22,COc1ccc(NC(=O)Cn2c(=O)n(CCc3ccccc3)c(=O)c3c4c(sc32)CCCC4)cc1,inactive
23,CCc1ccc(S(=O)(=O)NC(=S)Nc2ccccc2)cc1,inactive
24,N#Cc1c(C#N)c(-c2ccccc2)n(-c2ccccc2)c1N,"inconclusive: 16.4 µM [cytotoxic, single point]"
25,Cc1ccc(SCC(=O)OCC(=O)Nc2ccc3[nH]c(=O)[nH]c3c2)cc1C,"inconclusive: 29.1 µM [rising, single point]"
